The source of these data is PubChem BioAssay AID1963822 (ICCB-Longwood Screening Facility, Harvard Medical School, 2024).

Structures are written as SMILES. Some of the results follow. Some tests of the compounds listed are not included; inactive here does not mean inactive elsewhere.

A short description of this assay: anaerobic choline-dependent bacterial growth inhibition – minimal medium, absorbance (AID 1963822). The following applies: Gram-negative bacterium anaerobic choline minimal medium, measured here: choline growth z-score, timepoint 1, stronger effect = lower value.
Compound `Cc1ccc2oc(C(=O)NCC3(N(C)C)CCCCC3)c(C)c2c1` gave a z-score of 0.46.

In the case of `Cc1cc(C)c2c(C)c(C(=O)NCC3(N(C)C)CCCCC3)oc2c1`, the z-score is -0.94.

In turn, `Cc1c(C(=O)NCC2(N(C)C)CCCCC2)oc2ccccc12` showed a z-score of 0.28. In turn, `Cc1cc2oc(C(=O)NCC3(N(C)C)CCCCC3)c(C)c2cc1Cl` yielded a z-score of 0.44.

`Cc1c(C(=O)NCC2(N(C)C)CCCCC2)oc2ccc(F)cc12` gave a z-score of -0.88. Take `Cc1ccc2c(C)c(C(=O)NCC3(N(C)C)CCCCC3)oc2c1`: the z-score amounted to 0.95. `Cc1ccc2c(Cl)c(C(=O)NCC3(N(C)C)CCCCC3)sc2c1`: the z-score is -0.86.
